Publication PMC10163288
The list shows a part of the results.

B1: il10ra_site1_sap_25_mot_HHH_b2_08004_000000101_0001_1_17_H_._HHH_b1_00239_af2_0001_0000100007_0000001_0_0001_af2pred_0001 (protein)
chain: SSSSSEEAQRVIELIREAFQLLHEGNPEEARELLEEARELAEEANNPLLRLQVELVLKQINSSSS
B2: il10ra_site1_normal_mot_HHH_b2_00479_000000091_0001_1_12_H_._HHH_b1_05715_0001_0000500051_0000001_0 (protein)
chain: SSSSDVADELYKLSREALELLANGNPEEAREVVEEAEELARENNNPVLLFSIEYLARQIESSSSS
B3: il10ra_site1_normal_mot_HHH_b1_04877_af2_000000063_0001_41_55_H_._HHH_b1_05082_0001_0000300014_0000001_0 (protein)
chain: SSSSSEEEEVEELLEEAERIPDPHEVAELLAEALRIAYELGDEELFRRIQEVAIKIQERLSSSSS
B4: il10ra_site1_sap_23_mot_HHH_b2_04186_af2_000000278_0001_1_19_H_._HHH_b1_06647_af2_0001_0000600036_0000002_0_0001 (protein)
chain: SSSSTKTHEVYKLSERALELRANGNPEEAREVLERAEELAEEANNYAALHAVRMILEQIESSSSS
B5: il10ra_site1_sap_19_mot_39ab2cb694c8b9c1dc7e65c0d672c93e_0001_000000036_0001_53_65_H_._HHH_b2_05437_0001_0000300034_0000001_0_0001_af2pred_0001 (protein)
chain: SSSSSDVEELLERAKELAERGNPEEAKEVLREALEAITHARDPELSYKAVRAYAFVNQLSSSSSS
B6: il10ra_site1_normal_mot_HHH_b2_05323_000000159_0001_1_18_H_._HHH_b1_07021_0001_0000100004_0000001_0 (protein)
chain: SSSSDEEEQRVLELVQEVFRLALRGNPEEAREVLEEAKELAERIGDERLLRVIESLEQALSSSSS
B7: il10ra_site1_normal_mot_HHH_b2_02337_000000026_0001_38_52_H_._HHH_b1_06600_0001_0000200019_0000001_0 (protein)
chain: SSSSSAEEEARELLEEAEELLRQGNPEEAIRLLQEASAFALRASDQELLREIWRLVQELRSSSSS
B8: il10ra_site1_normal_mot_HHH_b1_01821_000000158_0001_23_39_H_._HHH_b2_00259_0001_0000800036_0000001_0 (protein)
chain: SSSSSSSEEIEEEVRRLLEEAERVDQEEANRLLLEALQLAIEAQDAELLQEIWEVFRELSSSSSS
B9: il10ra_site1_sap_20_mot_HHH_b2_00335_000000038_0001_43_57_H_._HHH_b1_02783_0001_0000300035_0000001_0_0001 (protein)
chain: DEELVELARLALEGDPRAHMELIHLYALIHQGDPEAERELEEAIKLAEELGDEDVVIYLRNLLEQ
B10: il10ra_site1_sap_14_mot_HHH_b2_00984_000000042_0001_1_20_H_._HHH_b2_03909_0002_0000200009_0000001_0_0001_af2pred_dldesign_0_af2pred (protein)
chain: SREELLDILVRDLDIPEEVAKAILDQVTKQSGGDRRAILQRLLARAQLQGREDAVARLTALLERE
B11: il10ra_site1_normal_mot_HHH_b1_05357_000000034_0001_23_39_H_._HHH_b2_01604_af2_0001_0000400004_0000001_0 (protein)
chain: SSSSSSEIEEEVEELLERAKHIPDKEELSHVLIQAYAVANRGGNEELRELVREVAIRLVSSSSSS
B12: il10ra_site1_normal_mot_HHH_b1_04514_000000156_0001_1_18_H_._HHH_b2_06451_0001_0000400042_0000001_0 (protein)
chain: SSSSSEELYEEVKKVIEEAKELFERGNPEEVERILRELLEELEELNNFAALFSVEHLARVLSSSS
B13: il10ra_site1_normal_mot_HHH_b1_05185_000000011_0001_22_39_H_._HHH_b2_02890_0002_0000300022_0000002_0 (protein)
chain: SSSSSVAERSVRFLLEAAKQIDDPEYVRLTLRFAKALARSTNNEELEEKIEEVEKELKELLSSSS
B14: il10ra_site1_normal_mot_HHH_b1_02062_000000185_0001_1_20_H_._HHH_b2_07452_0001_0000300045_0000002_0_af2pred_0001 (protein)
chain: SSSSSHTEEVLRLSREAIELLNDGNKEEAEKLVEEAQELAREGGNELLVRLLEFLEEQIKSSSSS
B15: il10ra_site1_sap_10_mot_HHH_b1_07380_000000129_0001_1_20_H_._HHH_b1_03010_0001_0000100007_0000001_0_0001 (protein)
chain: SSSSSELRHKLAEALMRAARAMFRGNPEEAEELLEEAERLAEKANDEKAKRLIEDLLRTVKSSSS
B16: il10ra_site1_sap_29_mot_1a19b20af19f20120a784029a7d8d036_0001_000000031_0001_1_14_H_._HHH_b1_00672_0001_0000200007_0000001_0_0001 (protein)
chain: SSSSSDANEEIWRLSKEALEALANGNPEEAKEILEEAIELAREANSRVLLHVLEFLEKEISSSSS
B17: il10ra_site1_normal_mot_HHH_b2_04912_000000028_0001_1_20_H_._HHH_b1_01196_0001_0000200029_0000002_0 (protein)
chain: SSSSSDAEERILRLSREAFRLLLRGNPEEARELLEEAIELAQEAGDERALRQLEELLRTNSSSSS
B18: il10ra_site1_sap_24_mot_HHH_b1_03314_af2_000000278_0001_42_55_H_._HHH_b2_05844_af2_0001_0000100003_0000002_0_0001 (protein)
chain: SSSSDRSERIYELSREIARAISDGDREEAEELIEEAEKLIEELGDRLLKFILEHLERQLNSSSSS
B19: il10ra_site1_sap_17_mot_HHH_b1_08133_000000195_0001_1_19_H_._HHH_b2_02059_0001_0000200018_0000001_0_0001 (protein)
chain: SSSSSDVEEELEEAEKLAEERGNRAALFLLRQALEALELAGDPRVREIIRSLVRIVEEELSSSSS
B20: il10ra_site1_sap_16_mot_HHH_b1_05056_000000217_0001_1_20_H_._HHH_b1_00628_0001_0000400029_0000001_0_0001 (protein)
chain: SSSSDESQELFELIEELVEAHREGDPELVERLAEEAEKLAEELGNRLAKLQIEFIERLAHSSSSS
B21: il10ra_site1_sap_11_mot_HHH_b2_00475_000000002_0001_44_57_H_._HHH_b1_07776_0001_0000100002_0000001_0_0001 (protein)
chain: SSSSDTRELYKALRRVAKLDADGDQEEAERLLEEAERLAEELNDRLFLFNLEHLKEVIERRSSSS
B22: il10ra_site1_normal_mot_HHH_b1_07527_000000076_0001_1_15_H_._HHH_b1_07772_0001_0000200016_0000001_0 (protein)
chain: SSSSSDEVYELLREIMELLREGDEERVRELLEQIEELVKELGNFVFEFSLRVLEEQFERLFSSSS
B23: il10ra_site1_normal_mot_HHH_b1_04015_af2_000000074_0001_1_17_H_._HHH_b2_02734_0001_0000200018_0000002_0 (protein)
chain: SSSSSDLYEEVKEVIKEAIELYRNGNPEEARELLEELLEKVEEAGNPAALFALEHLLRVLSSSSS
B24: il10ra_site1_sap_22_mot_1f0bf248c09923a0581b66a675a8b92c_0001_af2_000000190_0001_52_65_H_._6586f062cc7817236c67ed8004cc3ec0_0001_0001_0000300016_0000001_0_0001 (protein)
chain: SSSSTTAERSIEFALRLAEELLKRGDPEAAELVLKIAEEAARAANNPELLRELEELLEEIRSSSS
B25: il10ra_site1_sap_13_mot_HHH_b2_00943_af2_000000149_0001_1_17_H_._HHH_b1_05738_0001_0000300015_0000001_0_0001 (protein)
chain: SSSSSDREERIEELLEQAERLAEEGNPEEATRLLAEAVRLIFELGDHELLRELWELVHKLSSSSS
B26: il10ra_site1_normal_mot_HHH_b2_02053_af2_000000006_0001_3_19_H_._HHH_b1_00442_0001_0000200013_0000001_0 (protein)
chain: SSSSEEVYKLIRRALELRANGNPEEAEKLLEEALELAEEAGNFSIVFAIEQALKLLRELLSSSSS
B27: il10ra_site1_sap_21_mot_HHH_b1_04693_000000238_0001_19_36_H_._HHH_b1_05760_0001_0000100003_0000001_0_0001 (protein)
chain: SSSSSSDLEELLEELEELVEEGDKERALRLAIELLRLAFRNSDPEILRAVWELVKRLDSSSSSSS
B28: il10ra_site1_sap_8_mot_HHH_b1_07878_000000292_0001_1_19_H_._HHH_b1_06448_0001_0000300043_0000001_0_0001 (protein)
chain: SSSSDLEELVRAALELAEQAEKAGDPRSARWLLKALLEALERNNDPELVREVEELLEEIRGSSSS
B29: il10ra_site1_normal_mot_HHH_b2_07784_af2_000000103_0001_19_36_H_._HHH_b1_06064_af2_0001_0000200006_0000002_0 (protein)
chain: SSSSSYEEVKKLIEQIVELLRRGDRERAKELIEELEELAEELNNPSLKFVVRLLEQALERLSSSS
B30: il10ra_site1_normal_mot_HHH_b2_02053_af2_000000006_0001_3_19_H_._HHH_b2_05958_0001_0000100008_0000001_0 (protein)
chain: SSSSSEETERLYKLSREALEARENGNPEEAQEILEEALEIAEEGNNFNFLFNLRFLLRDLKSSSS
B31: il10ra_site1_normal_mot_HHH_b1_05185_000000011_0001_22_39_H_._HHH_b2_02785_0001_0000100008_0000001_0 (protein)
chain: SSSSDEETQRISEIFVRAARLIVEGDEERVRELIEELERLAEELNDEYAKLSVRFLKLLLNSSSS
B32: il10ra_site1_normal_mot_HHH_b1_05056_000000217_0001_1_20_H_._HHH_b2_06339_0001_0000100003_0000001_0 (protein)
chain: SSSSDYEERVRELLEEAEELLERGNPEEALRLIAEAVRVAYEGKNPEALRLVWEFVEEFASSSSS
B33: il10ra_site1_normal_mot_05afbb9f204b58045f25af15c542ced4_0001_af2_000000154_0001_34_48_H_._HEEHE_2054_0001_0000200009_0000001_0_af2pred_0001 (protein)
chain: SRELAIKYAVERLAEYARLKSVEVEVENNTVTVTVEGDDEAARYVIRAVEVLARLAGIPFEYSTE
B34: il10ra_site1_normal_mot_HHH_b1_05056_000000217_0001_1_20_H_._HHH_b2_06260_0001_0000200013_0000001_0 (protein)
chain: SSSSSEDEEEVEELLEQAKEAAKRDPREAARLLQEATHIALQNQNEELLKEVWEVVKELANSSSS
B35: il10ra_site1_normal_mot_HHH_b2_01649_af2_000000191_0001_40_56_H_._HHH_b1_07449_0001_0000100003_0000001_0 (protein)
chain: SSSSTAEVAFRFHEELAEEALKLGNREEAERILRAAIEALRRLNDEELVEKLEELLEEVRGSSSS
B36: il10ra_site1_normal_mot_HHH_b1_06914_000000280_0001_1_18_H_._HHH_b2_00168_0001_0000200021_0000001_0 (protein)
chain: SSSDEEASQELYELLREVLELLAQGNPEEAEKVLEEAEELARENNNELFLIIIEFIKRQVSSSSS
B37: il10ra_site1_normal_mot_8756ee2cf497b5429c717dfc0c0bcfd6_0001_000000186_0001_1_13_H_._HHH_b2_04770_af2_0001_0000400016_0000001_0_af2pred_0001 (protein)
chain: SSSSSSDEELKRVQELIRRAAKITDEEELREVLEEAKELAEELGNEILRVIVEFLLELMTSSSSS

target: il10ra, Q13651; assay: yeast display titration

Apparent Kd, inactive:
B1 no binding seen, B2 no binding seen, B3 no binding seen, B4 no binding seen, B5 no binding seen, B6 no binding seen, B7 no binding seen, B8 no binding seen, B9 no binding seen, B10 no binding seen, B11 no binding seen, B12 no binding seen, B13 no binding seen, B14 no binding seen, B15 no binding seen, B16 no binding seen, B17 no binding seen, B18 no binding seen, B19 no binding seen, B20 no binding seen, B21 no binding seen, B22 no binding seen, B23 no binding seen, B24 no binding seen, B25 no binding seen, B26 no binding seen, B27 no binding seen, B28 no binding seen, B29 no binding seen, B30 no binding seen, B31 no binding seen, B32 no binding seen, B33 no binding seen, B34 no binding seen, B35 no binding seen, B36 no binding seen, B37 no binding seen
